Experimental data as given in PMC5364561.
No constants are given. Whether binding was seen depends on the method and setting. Binding seen in cells or lysates may run through a third protein. A yes stands for co-enrichment or nearness to the bait. Other partners may have been found.

Chains of the proteins cited; added tags and fusions are not shown.
UniProt Q9H4L4: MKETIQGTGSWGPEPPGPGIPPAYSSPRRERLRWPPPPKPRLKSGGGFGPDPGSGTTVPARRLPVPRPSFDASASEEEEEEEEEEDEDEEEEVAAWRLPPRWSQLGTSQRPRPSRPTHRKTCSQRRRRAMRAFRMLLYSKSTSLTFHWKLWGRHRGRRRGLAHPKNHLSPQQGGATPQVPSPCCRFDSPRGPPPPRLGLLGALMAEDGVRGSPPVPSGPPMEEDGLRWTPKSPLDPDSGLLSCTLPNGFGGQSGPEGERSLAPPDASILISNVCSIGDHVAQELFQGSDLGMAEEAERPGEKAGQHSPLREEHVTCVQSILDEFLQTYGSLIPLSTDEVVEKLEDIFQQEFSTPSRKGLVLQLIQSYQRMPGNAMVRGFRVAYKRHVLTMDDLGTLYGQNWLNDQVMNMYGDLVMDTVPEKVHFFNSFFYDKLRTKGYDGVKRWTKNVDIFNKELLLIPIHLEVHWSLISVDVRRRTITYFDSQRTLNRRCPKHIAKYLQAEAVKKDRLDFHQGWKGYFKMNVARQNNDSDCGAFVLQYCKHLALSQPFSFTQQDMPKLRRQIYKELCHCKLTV

Target: SUMO isopeptidase SENP3 (sentrin-specific protease 3) (human (endogenous in HeLa)) (UniProt Q9H4L4)
Experiment: affinity purification with mass spectrometry; SILAC-labelled HeLa lysates (50 mM HEPES pH 7.5, 150 mM NaCl, 2 mM EDTA, 0.5% Triton X-100); anti-SENP3 IP (R6K4) against control rabbit IgG IP (R0K0), protein G dynabeads, mixed 1:1, SDS-PAGE, LC-MS/MS

- binding: binds
B1: LRRFIP1 (protein, UniProt Q32MZ4 1-808)
chain: MTSPAAAQSREIDCLSPEAQKLAEARLAAKRAARAEAREIRMKELERQQKEEDSERYSRRSRRNTSASDEDERMSVGSRGSLRVEERPEKDFTEKGSRNMPGLSAATLASLGGTSSRRGSGDTSISIDTEASIREIKELNELKDQIQDVEGKYMQGLKEMKDSLAEVEEKYKKAMVSNAQLDNEKTNFMYQVDTLKDMLLELEEQLAESRRQYEEKNKEFEREKHAHSILQFQFAEVKEALKQREEMLEKHGIILNSEIATNGETSDTLNNVGYQGPTKMTKEELNALKSTGDGTLGRASEVEVKNEIVANVGKREILHNTEKEQHTEDTVKDCVDIEVFPAGENTEDQKSSEDTAPFLGTLAGATYEEQVQSQILESSSLPENTVQVESNEVMGAPDDRTRTPLEPSNCWSDLDGGNHTENVGEAAVTQVEEQAGTVASCPLGHSDDTVYHDDKCMVEVPQELETSTGHSLEKEFTNQEAAEPKEVPAHSTEVGRDHNEEEGEETGLRDEKPIKTEVPGSPAGTEGNCQEATGPSTVDTQNEPLDMKEPDEEKSDQQGEALDSSQKKTKNKKKKNKKKKSPVPVETLKDVKKELTYQNTDLSEIKEEEQVKSTDRKSAVEAQNEVTENPKQKIAAESSENVDCPENPKIKLDGKLDQEGDDVQTAAEEVLADGDTLDFEDDTVQSSGPRAGGEELDEGVAKDNAKIDGATQSSPAEPKSEDADRCTLPEHESPSQDISDACEAESTERCEMSEHPSQTVRKALDSNSLENDDLSAPGREPGHFNPESREDTRGGNEKGKSKEDCTMS
